The target in one assay is T1, Mps3-GFP (S. cerevisiae) (UniProt P47069).
T1 sequence: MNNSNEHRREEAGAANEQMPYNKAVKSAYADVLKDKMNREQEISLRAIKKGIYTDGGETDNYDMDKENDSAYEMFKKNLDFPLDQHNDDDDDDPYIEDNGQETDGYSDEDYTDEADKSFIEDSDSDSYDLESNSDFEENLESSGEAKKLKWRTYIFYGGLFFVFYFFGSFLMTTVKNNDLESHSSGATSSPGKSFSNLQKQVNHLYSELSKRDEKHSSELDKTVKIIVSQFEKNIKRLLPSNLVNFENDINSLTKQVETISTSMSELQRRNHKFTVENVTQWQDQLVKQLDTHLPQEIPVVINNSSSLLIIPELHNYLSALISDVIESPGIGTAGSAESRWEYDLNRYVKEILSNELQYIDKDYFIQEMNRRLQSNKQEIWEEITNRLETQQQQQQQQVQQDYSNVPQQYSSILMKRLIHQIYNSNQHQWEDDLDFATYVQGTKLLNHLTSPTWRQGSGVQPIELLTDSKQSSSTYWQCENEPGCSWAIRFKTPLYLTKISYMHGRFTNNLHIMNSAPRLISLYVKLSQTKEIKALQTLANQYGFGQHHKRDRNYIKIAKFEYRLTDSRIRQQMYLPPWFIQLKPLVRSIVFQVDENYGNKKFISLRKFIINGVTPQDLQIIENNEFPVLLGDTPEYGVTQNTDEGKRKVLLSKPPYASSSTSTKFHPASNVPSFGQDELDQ
The assay is described as follows: co-IP; GFP-Trap magnetic agarose on whole cell extracts of meiotic cells (16 h after induction), wild type and swr1Δ; 20 mM HEPES-NaOH pH 7.5, 300 mM NaCl, 0.5% Triton X-100, 3 h at 4°C; Western blot of the immunoprecipitates. Background: In western blotting, separated proteins are transferred to a membrane and probed.

By UniProt entry, the sequences of proteins in these tests, tags left out. Where a name states a change or a piece, a line headed by the entry shows the natural chain unless it says otherwise.
UniProt Q12692: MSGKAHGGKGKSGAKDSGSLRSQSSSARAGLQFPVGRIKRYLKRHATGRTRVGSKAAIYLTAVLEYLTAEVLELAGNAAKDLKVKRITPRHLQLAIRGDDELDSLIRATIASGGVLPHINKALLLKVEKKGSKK

The target of assay [1] is H2A.Z-GFP (S. cerevisiae) (UniProt Q12692). The assay is described as above.

The text below walks through data of article PMC7642583.

No constants are given. Whether binding was seen depends on the method and setting. In cells and extracts the contact can be indirect. Some binding calls cover weakened binding; strength is not graded here. For part of these data: Sequences can lack the tags named with a protein.

On to H2A.Z (from UniProt Q12692 1-134), for which the binding entry in the assay with Mps3-GFP (S. cerevisiae) is given as “binds”. The same measure, in the same setting: then H3 (from UniProt P61830 1-136), with “no binding”.

B1: Mps3-3HA (protein, UniProt P47069 1-682)
chain: T1 sequence
Turning to B1, in assay [1], the binding entry was “binds”.
